Measured values from PMC4883773.
No constants are given. Whether binding was seen depends on the method and setting. In cells and extracts the contact can be indirect. Some results given as binding are weak or reduced against the parent protein; the word gives no strength.

Chains of the proteins cited; added tags and fusions are not shown. Residues count along the entry.
UniProt Q05086: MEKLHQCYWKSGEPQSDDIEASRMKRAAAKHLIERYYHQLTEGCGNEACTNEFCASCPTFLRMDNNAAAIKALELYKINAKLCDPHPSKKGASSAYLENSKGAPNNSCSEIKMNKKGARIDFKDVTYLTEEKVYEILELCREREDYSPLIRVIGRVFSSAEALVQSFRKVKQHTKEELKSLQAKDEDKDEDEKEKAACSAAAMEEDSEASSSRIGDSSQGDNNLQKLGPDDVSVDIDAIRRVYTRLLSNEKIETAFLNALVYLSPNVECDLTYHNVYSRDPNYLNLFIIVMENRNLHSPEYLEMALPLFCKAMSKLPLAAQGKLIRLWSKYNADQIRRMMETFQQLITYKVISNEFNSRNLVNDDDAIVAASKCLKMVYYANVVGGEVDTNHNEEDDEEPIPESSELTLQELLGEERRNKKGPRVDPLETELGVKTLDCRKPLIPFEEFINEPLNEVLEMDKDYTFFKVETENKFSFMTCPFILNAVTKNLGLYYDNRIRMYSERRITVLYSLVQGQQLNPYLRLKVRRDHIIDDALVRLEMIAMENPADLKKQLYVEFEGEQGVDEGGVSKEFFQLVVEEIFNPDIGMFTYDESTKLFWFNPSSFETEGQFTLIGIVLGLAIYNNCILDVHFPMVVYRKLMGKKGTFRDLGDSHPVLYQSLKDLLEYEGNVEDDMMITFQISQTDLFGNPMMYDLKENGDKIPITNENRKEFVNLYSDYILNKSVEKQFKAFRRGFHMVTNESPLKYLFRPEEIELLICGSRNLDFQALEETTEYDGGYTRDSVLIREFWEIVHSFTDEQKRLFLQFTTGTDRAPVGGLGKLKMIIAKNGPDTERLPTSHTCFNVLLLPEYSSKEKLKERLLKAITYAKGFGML
UniProt P36894, residues 24-532: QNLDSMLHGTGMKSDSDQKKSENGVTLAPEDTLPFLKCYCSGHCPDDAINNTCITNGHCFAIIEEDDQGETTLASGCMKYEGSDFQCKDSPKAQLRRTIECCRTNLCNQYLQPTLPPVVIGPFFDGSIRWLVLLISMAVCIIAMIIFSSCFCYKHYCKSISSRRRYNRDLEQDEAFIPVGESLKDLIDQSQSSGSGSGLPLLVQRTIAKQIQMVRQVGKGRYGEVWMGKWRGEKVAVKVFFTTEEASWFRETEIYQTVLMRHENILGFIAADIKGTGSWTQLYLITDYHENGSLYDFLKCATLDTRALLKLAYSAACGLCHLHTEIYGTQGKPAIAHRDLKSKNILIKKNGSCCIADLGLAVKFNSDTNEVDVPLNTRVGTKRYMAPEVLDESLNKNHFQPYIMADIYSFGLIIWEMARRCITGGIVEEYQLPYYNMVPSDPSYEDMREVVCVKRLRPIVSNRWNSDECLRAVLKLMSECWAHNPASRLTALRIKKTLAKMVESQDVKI

Target: HA-UBE3A (human, HEK293 cells) (human) (UniProt Q05086)
Assay: co-IP; lysates of HEK293 cells co-transfected with myc-ALK3 and HA-UBE3A; immunoprecipitated with anti-HA (control anti-IgG), blotted for HA and myc

binding: binds
Substance: myc-ALK3 (HEK293 cells) (from UniProt P36894 24-532) (receptor)
